# No constants are given. Whether binding was seen depends on the method and setting. In cells and extracts the contact can be indirect. Some results given as binding are weak or reduced against the parent protein; the word gives no strength. For some assays here: Where a sequence is shown, tags or fusion partners need not be part of it.
# Chains of the proteins cited; added tags and fusions are not shown.
# UniProt Q6PDQ2: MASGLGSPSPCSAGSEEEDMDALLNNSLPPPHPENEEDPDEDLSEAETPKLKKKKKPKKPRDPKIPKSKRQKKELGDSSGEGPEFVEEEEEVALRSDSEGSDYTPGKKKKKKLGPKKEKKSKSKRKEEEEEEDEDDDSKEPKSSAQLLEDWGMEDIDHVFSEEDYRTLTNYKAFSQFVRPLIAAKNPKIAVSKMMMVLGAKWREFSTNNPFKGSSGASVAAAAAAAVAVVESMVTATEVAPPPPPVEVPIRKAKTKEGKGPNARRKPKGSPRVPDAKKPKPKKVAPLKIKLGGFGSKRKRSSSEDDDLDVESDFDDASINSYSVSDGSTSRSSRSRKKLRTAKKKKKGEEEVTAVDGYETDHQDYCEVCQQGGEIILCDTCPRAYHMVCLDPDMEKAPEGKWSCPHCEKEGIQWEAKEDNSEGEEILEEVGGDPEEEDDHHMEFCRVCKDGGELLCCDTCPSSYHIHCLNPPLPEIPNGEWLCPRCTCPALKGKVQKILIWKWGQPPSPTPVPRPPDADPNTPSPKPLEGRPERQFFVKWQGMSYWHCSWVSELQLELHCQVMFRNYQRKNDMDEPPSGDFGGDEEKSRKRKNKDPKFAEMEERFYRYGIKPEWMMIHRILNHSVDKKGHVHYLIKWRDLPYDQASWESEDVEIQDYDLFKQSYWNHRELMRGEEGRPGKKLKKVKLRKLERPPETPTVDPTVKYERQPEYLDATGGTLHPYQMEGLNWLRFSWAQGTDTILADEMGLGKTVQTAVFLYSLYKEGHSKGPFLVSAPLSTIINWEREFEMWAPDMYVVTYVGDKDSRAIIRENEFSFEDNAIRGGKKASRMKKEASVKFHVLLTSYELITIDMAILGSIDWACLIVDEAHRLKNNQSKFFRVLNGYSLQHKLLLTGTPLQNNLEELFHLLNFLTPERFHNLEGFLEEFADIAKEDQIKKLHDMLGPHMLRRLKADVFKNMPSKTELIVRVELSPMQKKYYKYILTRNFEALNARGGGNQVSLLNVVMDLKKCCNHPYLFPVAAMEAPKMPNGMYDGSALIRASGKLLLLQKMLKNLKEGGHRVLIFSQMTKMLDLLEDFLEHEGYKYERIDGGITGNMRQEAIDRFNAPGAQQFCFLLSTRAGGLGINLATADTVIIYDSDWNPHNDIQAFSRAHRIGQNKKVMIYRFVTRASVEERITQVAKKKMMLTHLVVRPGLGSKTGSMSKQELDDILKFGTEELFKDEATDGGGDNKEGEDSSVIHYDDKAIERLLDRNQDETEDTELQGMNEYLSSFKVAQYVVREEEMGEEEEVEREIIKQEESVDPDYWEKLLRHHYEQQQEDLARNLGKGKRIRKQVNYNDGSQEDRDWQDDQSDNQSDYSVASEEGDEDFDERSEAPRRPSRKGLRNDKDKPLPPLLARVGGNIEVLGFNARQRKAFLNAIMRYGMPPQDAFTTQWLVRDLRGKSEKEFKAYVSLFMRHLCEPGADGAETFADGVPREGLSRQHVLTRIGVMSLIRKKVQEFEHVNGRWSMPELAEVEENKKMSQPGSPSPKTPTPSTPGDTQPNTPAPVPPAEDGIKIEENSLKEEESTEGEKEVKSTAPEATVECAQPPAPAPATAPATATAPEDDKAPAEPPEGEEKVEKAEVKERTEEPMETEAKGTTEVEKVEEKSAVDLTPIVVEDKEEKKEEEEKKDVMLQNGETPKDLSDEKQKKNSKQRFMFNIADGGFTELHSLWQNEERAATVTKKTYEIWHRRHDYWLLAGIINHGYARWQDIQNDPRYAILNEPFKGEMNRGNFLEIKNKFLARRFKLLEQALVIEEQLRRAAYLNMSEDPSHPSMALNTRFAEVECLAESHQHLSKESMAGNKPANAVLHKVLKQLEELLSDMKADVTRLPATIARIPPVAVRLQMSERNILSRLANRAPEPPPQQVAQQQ
# T1: 3x Myc-NKX2.2 WT (full-length NKX2.2 with 3 myc epitope tags at the N-terminus) (UniProt P42586)
# T1 sequence: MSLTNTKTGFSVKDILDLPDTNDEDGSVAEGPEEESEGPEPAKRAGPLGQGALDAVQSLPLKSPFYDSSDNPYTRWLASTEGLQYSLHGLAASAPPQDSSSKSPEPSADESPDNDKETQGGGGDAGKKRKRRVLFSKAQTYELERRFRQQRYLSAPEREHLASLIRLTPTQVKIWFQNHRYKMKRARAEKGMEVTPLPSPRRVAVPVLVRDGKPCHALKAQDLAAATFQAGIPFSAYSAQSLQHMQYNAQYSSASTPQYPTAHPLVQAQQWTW
# Columns and labels:
# [1] = biological target: T1, 3x Myc-NKX2.2 WT (full-length NKX2.2 with 3 myc epitope tags at the N-terminus); test: co-IP
# [2] = biological target: Chromodomain Helicase DNA-binding Protein 4 (CHD4) (mouse (endogenous in MIN6)) (UniProt Q6PDQ2); test: co-IP
Molecule,binding [1],binding [2]
Chromodomain Helicase DNA-binding Protein 4 (CHD4) (from UniProt Q6PDQ2 1-1915),binds,–
"endogenous NKX2.2 (protein, UniProt P42586 1-273) MSLTNTKTGFSVKDILDLPDTNDEDGSVAEGPEEESEGPEPAKRAGPLGQGALDAVQSLPLKSPFYDSSDNPYTRWLASTEGLQYSLHGLAASAPPQDSSSKSPEPSADESPDNDKETQGGGGDAGKKRKRRVLFSKAQTYELERRFRQQRYLSAPEREHLASLIRLTPTQVKIWFQNHRYKMKRARAEKGMEVTPLPSPRRVAVPVLVRDGKPCHALKAQDLAAATFQAGIPFSAYSAQSLQHMQYNAQYSSASTPQYPTAHPLVQAQQWTW",–,binds
